Results: article doi:10.1101/373829
No constants are given. Whether binding was seen depends on the method and setting. Binding seen in cells or lysates may run through a third protein. A yes stands for co-enrichment or nearness to the bait. Other partners may have been found. Values belong to the binder of their own block, whether it stands above or below them.

By UniProt entry, the sequences of proteins in these tests, tags left out.
UniProt P0A8T7, whole entry: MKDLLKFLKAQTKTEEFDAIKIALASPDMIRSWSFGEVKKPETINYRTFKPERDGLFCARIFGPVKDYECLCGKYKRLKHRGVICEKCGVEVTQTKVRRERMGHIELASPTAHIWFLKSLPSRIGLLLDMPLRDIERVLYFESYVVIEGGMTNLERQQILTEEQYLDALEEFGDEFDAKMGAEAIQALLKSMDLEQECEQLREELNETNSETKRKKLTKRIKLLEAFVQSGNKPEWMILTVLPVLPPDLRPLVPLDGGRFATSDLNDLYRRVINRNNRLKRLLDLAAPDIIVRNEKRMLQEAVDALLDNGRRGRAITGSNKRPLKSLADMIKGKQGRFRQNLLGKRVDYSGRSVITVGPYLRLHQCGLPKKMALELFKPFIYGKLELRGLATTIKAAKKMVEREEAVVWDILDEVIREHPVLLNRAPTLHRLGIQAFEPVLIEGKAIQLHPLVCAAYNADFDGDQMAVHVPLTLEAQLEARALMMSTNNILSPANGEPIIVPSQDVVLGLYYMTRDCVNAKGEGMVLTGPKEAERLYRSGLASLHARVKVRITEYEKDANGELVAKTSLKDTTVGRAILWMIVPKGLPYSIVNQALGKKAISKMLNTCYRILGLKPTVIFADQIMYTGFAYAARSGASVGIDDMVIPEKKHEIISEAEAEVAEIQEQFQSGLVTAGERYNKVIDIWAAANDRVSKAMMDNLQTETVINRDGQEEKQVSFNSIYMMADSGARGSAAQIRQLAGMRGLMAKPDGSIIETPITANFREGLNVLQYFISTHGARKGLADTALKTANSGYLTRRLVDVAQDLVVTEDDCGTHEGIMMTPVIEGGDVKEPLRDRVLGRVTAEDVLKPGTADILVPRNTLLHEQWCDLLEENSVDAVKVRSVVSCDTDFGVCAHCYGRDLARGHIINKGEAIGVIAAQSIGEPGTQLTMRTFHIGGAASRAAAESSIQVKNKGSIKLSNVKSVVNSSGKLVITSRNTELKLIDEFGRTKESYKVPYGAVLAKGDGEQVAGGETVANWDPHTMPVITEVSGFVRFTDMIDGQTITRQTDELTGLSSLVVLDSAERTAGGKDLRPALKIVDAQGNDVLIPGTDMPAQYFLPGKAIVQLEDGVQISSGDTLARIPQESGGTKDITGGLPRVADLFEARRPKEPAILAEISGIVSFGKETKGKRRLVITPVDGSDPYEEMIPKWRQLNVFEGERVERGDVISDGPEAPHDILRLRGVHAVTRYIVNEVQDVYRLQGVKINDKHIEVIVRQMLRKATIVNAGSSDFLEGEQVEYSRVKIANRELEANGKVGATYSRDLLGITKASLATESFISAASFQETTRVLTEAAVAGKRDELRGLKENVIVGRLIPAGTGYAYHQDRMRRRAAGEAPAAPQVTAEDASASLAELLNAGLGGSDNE

Target: His6-tagged RpoC (E. coli (endogenous in strain RL721)) (UniProt P0A8T7)
Assay: affinity purification with mass spectrometry

- binding: binds
B1: ExuR (protein, UniProt P0ACL2 1-258)
chain: MEITEPRRLYQQLAADLKERIEQGVYLVGDKLPAERFIADEKNVSRTVVREAIIMLEVEGYVEVRKGSGIHVVSNQPRHQQAADNNMEFANYGPFELLQARQLIESNIAEFAATQVTKQDIMKLMAIQEQARGEQCFRDSEWDLQFHIQVALATQNSALAAIVEKMWTQRSHNPYWKKLHEHIDSRTVDNWCDDHDQILKALIRKDPHAAKLAMWQHLENTKIMLFNETSDDFEFNADRYLFAENPVVHLDTATSGSK

- binding: binds
B2: MalT (protein, UniProt P06993 1-901)
chain: MLIPSKLSRPVRLDHTVVRERLLAKLSGANNFRLALITSPAGYGKTTLISQWAAGKNDIGWYSLDEGDNQQERFASYLIAAVQQATNGHCAICETMAQKRQYASLTSLFAQLFIELAEWHSPLYLVIDDYHLITNPVIHESMRFFIRHQPENLTLVVLSRNLPQLGIANLRVRDQLLEIGSQQLAFTHQEAKQFFDCRLSSPIEAAESSRICDDVSGWATALQLIALSARQNTHSAHKSARRLAGINASHLSDYLVDEVLDNVDLATRHFLLKSAILRSMNDALITRVTGEENGQMRLEEIERQGLFLQRMDDTGEWFCYHPLFGNFLRQRCQWELAAELPEIHRAAAESWMAQGFPSEAIHHALAAGDALMLRDILLNHAWSLFNHSELSLLEESLKALPWDSLLENPQLVLLQAWLMQSQHRYGEVNTLLARAEHEIKDIREDTMHAEFNALRAQVAINDGNPDEAERLAKLALEELPPGWFYSRIVATSVLGEVLHCKGELTRSLALMQQTEQMARQHDVWHYALWSLIQQSEILFAQGFLQTAWETQEKAFQLINEQHLEQLPMHEFLVRIRAQLLWAWARLDEAEASARSGIEVLSSYQPQQQLQCLAMLIQCSLARGDLDNARSQLNRLENLLGNGKYHSDWISNANKVRVIYWQMTGDKAAAANWLRHTAKPEFANNHFLQGQWRNIARAQILLGEFEPAEIVLEELNENARSLRLMSDLNRNLLLLNQLYWQAGRKSDAQRVLLDALKLANRTGFISHFVIEGEAMAQQLRQLIQLNTLPELEQHRAQRILREINQHHRHKFAHFDENFVERLLNHPEVPELIRTSPLTQREWQVLGLIYSGYSNEQIAGELEVAATTIKTHIRNLYQKLGVAHRQDAVQHAQQLLKMMGYGV
